Data as given in patent publication US20230391826A1, “COMPOSITIONS AND METHODS FOR TREATING DISEASES” (Sanford Burnham Prebys Medical Discovery Institute, priority 2020, published 2023).
Results are given in words; binding and its absence hold for the method and conditions named. Some binding calls cover weakened binding; strength is not graded here.

The chains behind the UniProt entries cited, without tags or fusion partners. Residues count along the entry.
UniProt P29317, residues 24-976: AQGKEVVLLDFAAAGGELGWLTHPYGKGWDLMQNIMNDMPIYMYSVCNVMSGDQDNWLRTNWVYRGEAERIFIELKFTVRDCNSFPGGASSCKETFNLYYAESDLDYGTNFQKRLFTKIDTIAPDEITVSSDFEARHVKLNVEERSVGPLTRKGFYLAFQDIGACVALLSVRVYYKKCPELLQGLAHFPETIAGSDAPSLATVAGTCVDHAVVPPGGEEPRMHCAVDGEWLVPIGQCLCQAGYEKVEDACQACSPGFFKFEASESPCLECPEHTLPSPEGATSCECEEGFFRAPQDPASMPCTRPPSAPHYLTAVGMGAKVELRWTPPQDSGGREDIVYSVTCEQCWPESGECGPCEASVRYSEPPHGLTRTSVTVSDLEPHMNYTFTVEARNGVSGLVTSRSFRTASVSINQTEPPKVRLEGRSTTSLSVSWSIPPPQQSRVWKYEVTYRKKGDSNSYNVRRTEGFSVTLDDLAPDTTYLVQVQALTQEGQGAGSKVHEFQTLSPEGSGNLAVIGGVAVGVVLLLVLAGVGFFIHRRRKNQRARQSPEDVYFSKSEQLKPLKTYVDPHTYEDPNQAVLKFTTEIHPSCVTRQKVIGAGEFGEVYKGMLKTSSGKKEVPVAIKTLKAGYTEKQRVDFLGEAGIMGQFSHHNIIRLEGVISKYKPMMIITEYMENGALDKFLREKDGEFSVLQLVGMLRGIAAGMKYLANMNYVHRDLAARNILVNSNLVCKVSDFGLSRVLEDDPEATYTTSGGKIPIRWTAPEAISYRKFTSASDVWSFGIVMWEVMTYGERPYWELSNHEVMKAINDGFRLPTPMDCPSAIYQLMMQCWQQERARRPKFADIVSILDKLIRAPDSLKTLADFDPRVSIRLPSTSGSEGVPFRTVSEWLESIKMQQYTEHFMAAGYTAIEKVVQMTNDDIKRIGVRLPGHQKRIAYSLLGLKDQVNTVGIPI

How the values were obtained:
[1] = biological target: EphA2 tagged at the C-terminus with mTURQ (donor) or EYFP (acceptor), transiently expressed in HEK293 cells (UniProt P29317); assay: quantitative FRET between EphA2-mTURQ and EphA2-EYFP in HEK293 cells with saturating dimer (2); self-association, higher order oligomer fit
[2] = biological target: EphA2 tagged at the C-terminus with mTURQ (donor) or EYFP (acceptor), transiently expressed in HEK293 cells (UniProt P29317); assay: quantitative FRET between EphA2-mTURQ and EphA2-EYFP in HEK293 cells with saturating dimer (5); self-association, higher order oligomer fit
[3] = biological target: EphA2 tagged at the C-terminus with mTURQ (donor) or EYFP (acceptor), transiently expressed in HEK293 cells (UniProt P29317); assay: quantitative FRET between EphA2-mTURQ and EphA2-EYFP in HEK293 cells, no ligand; self-association, monomer-dimer fit
[4] = biological target: EphA2 tagged at the C-terminus with mTURQ (donor) or EYFP (acceptor), transiently expressed in HEK293 cells (UniProt P29317); assay: FRET efficiency against total receptor concentration, EphA2-mTURQ and EphA2-EYFP co-expressed in HEK293T cells, saturating dimer (5)
[5] = biological target: EphA2 tagged at the C-terminus with mTURQ (donor) or EYFP (acceptor), transiently expressed in HEK293 cells (UniProt P29317); assay: FRET efficiency against total receptor concentration, EphA2-mTURQ and EphA2-EYFP co-expressed in HEK293T cells, saturating dimer (2)
[6] = biological target: EphA2 tagged at the C-terminus with mTURQ (donor) or EYFP (acceptor), transiently expressed in HEK293 cells (UniProt P29317); assay: FRET efficiency against total receptor concentration, EphA2-mTURQ and EphA2-EYFP co-expressed in HEK293T cells, untreated

- binding [1]: binds
- binding [2]: binds
- binding [3]: binds
- binding [4]: binds
- binding [5]: binds
- binding [6]: binds
Substance: EphA2 tagged at the C-terminus with mTURQ (donor) or EYFP (acceptor), transiently expressed in HEK293 cells (from UniProt P29317 24-976) (receptor)
